Test results taken from article PMC5233616, “Structural and functional analyses of human DDX41 DEAD domain” (Protein & Cell, 2016).
Results are given in words; binding and its absence hold for the method and conditions named.

Target: human DDX41 (hDDX41) DEAD domain (human) (UniProt Q9UJV9)
Assay: multiangle static light scattering; DEAD domain protein in solution; calculated molecular weight 29.3 kDa; both purified

B1: human DDX41 (hDDX41) DEAD domain (domain or fragment, UniProt Q9UJV9 153-410)
chain: LSMSEERHERVRKKYHILVEGDGIPPPIKSFKEMKFPAAILRGLKKKGIHHPTPIQIQGIPTILSGRDMIGIAFTGSGKTLVFTLPVIMFCLEQEKRLPFSKREGPYGLIICPSRELARQTHGILEYYCRLLQEDSSPLLRCALCIGGMSVKEQMETIRHGVHMMVATPGRLMDLLQKKMVSLDICRYLALDEADRMIDMGFEGDIRTIFSYFKGQRQTLLFSATMPKKIQNFAKSALVKPVTINVGRAGAASLDVIQ
For B1, the binding was “no binding”.
